From patent publication US12496349B2, “Macromolecular prodrug-based thermosensitive injectable gel as a novel drug delivery platform” (priority 2018, dated 2025)

Test system: monoiodoacetate-induced osteoarthritis (MIA) mice model
Conditions: mouse, in vivo

SMILES: C[C@@H]1C[C@H]2[C@@H]3CCC4=CC(=O)C=C[C@]4(C)[C@@]3(F)[C@@H](O)C[C@]2(C)[C@@]1(O)C(=O)COP(=O)(O)O [Dex, dexamethasone sodium phosphate]
- peri-articular bone structure of the knee joint (micro-CT images): Bone damage was also found
